These are yes or no findings as the source states them, for the method shown. A result given as binding can be weak or reduced; the word gives no strength.
What was measured:
[1] = biological target: recombinant human Alix, His-tagged (human) (UniProt Q8WUM4); assay: ELISA; both purified
[2] = biological target: recombinant RABV M, His-tagged (rabies virus (strain not stated for the construct)) (UniProt P25223); assay: ELISA; both purified

Sequences of proteins named here, by UniProt entry; tags and fusion partners are left off. A change or cut given only in a name is not applied to a line headed by its entry.
UniProt Q8WUM4: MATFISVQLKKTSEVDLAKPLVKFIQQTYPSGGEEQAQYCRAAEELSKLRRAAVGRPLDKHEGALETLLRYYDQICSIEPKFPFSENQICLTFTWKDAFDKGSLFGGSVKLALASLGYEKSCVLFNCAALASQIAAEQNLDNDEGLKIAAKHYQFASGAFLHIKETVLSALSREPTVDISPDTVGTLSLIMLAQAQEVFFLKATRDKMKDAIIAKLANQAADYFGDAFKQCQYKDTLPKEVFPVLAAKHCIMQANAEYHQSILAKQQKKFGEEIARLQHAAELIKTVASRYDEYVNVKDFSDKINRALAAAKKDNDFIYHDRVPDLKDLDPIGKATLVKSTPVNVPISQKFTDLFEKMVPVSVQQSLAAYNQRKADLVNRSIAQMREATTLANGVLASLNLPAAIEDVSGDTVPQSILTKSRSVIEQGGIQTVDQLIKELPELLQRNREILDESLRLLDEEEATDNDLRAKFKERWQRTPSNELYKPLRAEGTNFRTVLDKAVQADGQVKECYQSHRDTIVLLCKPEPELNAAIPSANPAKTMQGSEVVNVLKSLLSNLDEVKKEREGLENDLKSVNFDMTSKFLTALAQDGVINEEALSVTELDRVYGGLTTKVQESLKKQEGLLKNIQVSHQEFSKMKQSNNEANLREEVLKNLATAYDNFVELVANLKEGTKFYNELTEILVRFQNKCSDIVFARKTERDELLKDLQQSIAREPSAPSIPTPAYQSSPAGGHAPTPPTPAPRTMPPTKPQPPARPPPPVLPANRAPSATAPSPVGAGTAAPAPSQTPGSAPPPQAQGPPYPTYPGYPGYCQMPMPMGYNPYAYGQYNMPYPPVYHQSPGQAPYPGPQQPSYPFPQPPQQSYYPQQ
UniProt P25223: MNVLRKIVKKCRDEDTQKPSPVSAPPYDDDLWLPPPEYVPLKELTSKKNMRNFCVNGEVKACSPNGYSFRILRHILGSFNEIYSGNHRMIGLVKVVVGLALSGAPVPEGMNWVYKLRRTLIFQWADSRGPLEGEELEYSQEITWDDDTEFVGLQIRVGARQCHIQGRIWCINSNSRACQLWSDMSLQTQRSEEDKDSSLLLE
UniProt Q99816: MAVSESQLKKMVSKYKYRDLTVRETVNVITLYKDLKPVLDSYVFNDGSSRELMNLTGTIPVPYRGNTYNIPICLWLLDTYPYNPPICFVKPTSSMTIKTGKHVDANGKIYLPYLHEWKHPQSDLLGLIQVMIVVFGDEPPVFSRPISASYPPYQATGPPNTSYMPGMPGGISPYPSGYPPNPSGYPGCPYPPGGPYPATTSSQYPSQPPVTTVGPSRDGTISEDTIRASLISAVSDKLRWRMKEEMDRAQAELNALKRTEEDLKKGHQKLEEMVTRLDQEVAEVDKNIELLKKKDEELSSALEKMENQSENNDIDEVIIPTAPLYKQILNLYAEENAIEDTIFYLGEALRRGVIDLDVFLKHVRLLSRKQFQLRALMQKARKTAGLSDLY

Substance	binding [1]	binding [2]
recombinant TSG-UEV (N-terminal part of TSG101), His-tagged (from UniProt Q99816) (domain or fragment)	binds	binds
recombinant TSG-ΔUEV (C-terminal part of TSG101), FLAG-tagged (from UniProt Q99816) (domain or fragment)		binds

— paper PMC10231130
